According to PubChem BioAssay AID2685 (National Center for Advancing Translational Sciences (NCATS), 2010):
The list shows a part of the results. The main result of the screen is listed elsewhere. These columns were measured beside it and carry no call. Most of these compounds were active or inconclusive in the main read-out, so they are no random draw. Potencies come from curve fits of mixed quality, noted in brackets.

Test: qHTS Assay for Lipid Storage Modulators in Drosophila S3 Cells;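 on cell number change: cells counted by Cell Tracker Red CMTPX staining in the red channel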
Details: BODIPY lipid droplet fluorescence, 18-24 h; for cell number change: measured here: cell count max response, cells fed with added oleic acid
How it was run: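 Drosophila S3 cells loaded with oleic acid (400 uM, as added) and compounds at several concentrations; lipid droplets imaged by 488-nm laser-scanning cytometry, 500–530 nm intensity and object ratio to cell channel. Percent activity normalized to 20 uM Triacsin C.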

[1] = measured here: cell number channel AC50, cells fed with added oleic acid
[2] = measured here: lipid fluorescence (Fed channel) AC50, cells fed with added oleic acid

| Structure (SMILES) | cell number change [%] | AC50 [1] | AC50 [2] |
| --- | --- | --- | --- |
| Cc1onc(-c2c(Cl)cccc2Cl)c1C(=O)Nc1ccc2c(C(F)(F)F)cc(=O)oc2c1 | 2.79 | 2.91 µM [rising, single point] |  |
| COc1ccc([N+](=O)[O-])cc1N=Cc1c(O)n(CCc2ccccc2)c(=O)n(C(C)C)c1=O | 13.6 |  | 0.731 µM [rising, full curve, poor fit] |
| CCN(CCNc1ccc([N+](=O)[O-])c2cccnc12)S(=O)(=O)c1ccc(Cl)cc1 | -10.2 | 0.058 µM [rising, full curve, poor fit] | 0.0206 µM [rising, full curve] |
| O=P(Oc1ccccc1)(Oc1ccccc1)N1CCN(c2ccc(F)cc2)CC1 | -9.29 | 6.51 µM [falling, single point] |  |
| CC12CN3CC(C)(CN(C1)C3c1cccnc1)C2=O (stereo unspecified) | -7.36 |  | 6.51 µM [falling, single point] |
| COC(=O)C1=C(N)Oc2c(c(=O)oc3ccccc23)[C@]12C(=O)N(C)c1ccccc12 | 3.27 |  | 1.16 µM [rising, full curve] |
| O=C(CN1C(=O)CN=C(c2ccccc2Cl)c2cc(Cl)ccc21)NCc1ccco1 | -9.13 |  | 16.4 µM [falling, single point] |
| Cn1c(O)c(C(c2ccncc2)c2c(O)n(C)c(=S)n(C)c2=O)c(=O)n(C)c1=S | -34.5 | 0.13 µM [falling, full curve, poor fit] | 3.66 µM [falling, full curve] |
| CC(C)(C)c1ccc(CSc2cnn(C(C)(C)C)c(=O)c2Cl)cc1 | -38 | 0.0731 µM [falling, full curve] | 0.0058 µM [falling, full curve] |
| O=C(NCc1ccccc1)c1cccn(Cc2cccc(Cl)c2)c1=O | 6.26 |  | 0.92 µM [falling, full curve] |
| Nc1ccc(C2(c3ccc(N)cc3)CN3CCC2CC3)cc1 | -1.27 |  |  |
| COc1ccc(N2C(=O)/C(=C/c3ccc(OC)c(OC)c3)C(=O)NC2=S)cc1 | 2.46 |  | 20.6 µM [rising, partial curve] |
| COC(=O)CC1=C(C(=O)OC)C2(C(=O)Nc3c(C)cccc32)C(C#N)=C(N)O1 (stereo unspecified) | 14.5 |  | 6.51 µM [rising, single point] |
| COc1ccc(NC2=NC(C)(C)CS2)cc1 | -1.23 | 4.11 µM [falling, single point] | 0.58 µM [falling, partial curve, poor fit] |
| CCCNC(=O)N1[C@H]2CC[C@@H]1C(C(=O)OC)=C(c1c(C)noc1C)C2 | -19 | 0.058 µM [falling, full curve, poor fit] | 9.2 µM [rising, partial curve] |
| CCCCCCCCn1sccc1=O | -15.2 | 0.13 µM [falling, full curve, poor fit] |  |
| Cc1csc(=N)n1Cc1ccccc1 | 1.75 | 4.11 µM [falling, single point] | 29.1 µM [falling, single point] |
| COc1ccc(-c2nn(CCC#N)cc2C(=O)Nc2ccccc2Cl)cc1 | -47.2 | 20.6 µM [falling, partial curve, poor fit] |  |
| CCCNC(=O)c1c(N)n(CC2CCCO2)c2nc3ccccc3nc12 (stereo unspecified) | -47.7 | 11.6 µM [falling, partial curve, poor fit] |  |

| Structure (SMILES) | cell number change [%] | AC50 [1] | AC50 [2] |
| --- | --- | --- | --- |
| CC(C)NC(C)C(=O)C12CC3CC(CC(C3)C1)C2 (stereo unspecified) | 5.56 |  | 6.51 µM [falling, single point] |
| Fc1ccccc1N1CCN(Cc2c(F)cccc2F)CC1 | -28.4 |  | 29.1 µM [falling, single point] |
| COc1ccc(NS(=O)(=O)c2ccc(OCC(=O)N3CCN(C)CC3)cc2)cc1Cl | 26.8 | 0.00651 µM [rising, full curve, poor fit] |  |
| COc1ccc(CN2C(=O)NC(=O)/C(=C/c3ccoc3)C2=O)cc1 | -17.5 |  |  |
| COc1cccc(CN2CCNCC2)c1 | 7.09 |  | 29.1 µM [rising, single point] |
| C[N+]1(C)C2CC[C@H]1CC(OC(=O)C(CO)c1ccccc1)C2 (stereo partly specified) | 4.39 | 1.84 µM [falling, partial curve, poor fit] |  |
| CN1CCN(c2ccc(S(=O)(=O)C(F)(F)F)cc2[N+](=O)[O-])CC1 | -19.7 |  | 18.4 µM [falling, single point] |
| COc1ccc(OC)c(NC2=NCCCS2)c1 | 10.8 | 3.66 µM [falling, single point] |  |
| c1ccc(CNc2ncnc3nc[nH]c23)cc1 |  | 0.116 µM [falling, full curve, poor fit] |  |
| O=C(Nc1c(F)cc(F)cc1F)c1cccn(Cc2ccccc2)c1=O | 6.24 |  | 6.51 µM [rising, partial curve, poor fit] |
| Oc1ccc2ccccc2c1CN1CC=C(c2ccccc2)CC1 | -11.2 |  |  |
| CCCCn1c(O)c(C(CC)=NC(C)c2ccccc2)c(=O)[nH]c1=O (stereo unspecified) | -103 | 18.4 µM [falling, single point] |  |
| COc1ccc2[nH]c(C)c(CCNCc3cc(OC)c(OC)c(OC)c3)c2c1 |  | 1.03 µM [falling, full curve] | 1.16 µM [falling, full curve] |
| C#CCOc1cc(C2C3=C(COC3=O)Nc3cc4c(cc32)OCO4)ccc1OC (stereo unspecified) | 11 |  |  |
| O=c1[nH]c(=O)n(Cc2ccccc2)c(O)c1C=Nc1ccc(CN2CCOCC2)cc1 | -31.8 | 6.51 µM [falling, partial curve, poor fit] |  |
| Fc1cccc(F)c1CN1CCN(c2ccc(Cl)cc2)CC1 | -27.9 |  |  |
| Cc1cccc(-n2c(-c3ccccc3)nc3ccccc3c2=O)n1 | 13.4 |  | 0.651 µM [rising, partial curve] |
| COc1ccc(-n2c(-c3ccco3)nc3ccccc3c2=O)cc1 | 23.3 | 0.731 µM [rising, full curve, poor fit] |  |
| CSc1ncc(Cl)c(C(=O)O)n1 (tested in a mixture with another compound) | -3.15 |  | 29.1 µM [falling, single point] |

Already shown: an excerpt of the list.

| Structure (SMILES) | cell number change [%] | AC50 [1] | AC50 [2] |
| --- | --- | --- | --- |
| Oc1ccc2ccccc2c1CN1CC=C(c2ccccc2)CC1 | -11.2 |  |  |
| CCCCn1c(O)c(C(CC)=NC(C)c2ccccc2)c(=O)[nH]c1=O (stereo unspecified) | -103 | 18.4 µM [falling, single point] |  |
